Oligonucleotides screened, 5′ to 3′:
T1: PreQ1 riboswitch RNA pseudoknot, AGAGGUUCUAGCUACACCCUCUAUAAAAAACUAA. From B. subtilis. About 24,000 compounds screened, about 170 hits.
T2: SAM-II riboswitch RNA pseudoknot, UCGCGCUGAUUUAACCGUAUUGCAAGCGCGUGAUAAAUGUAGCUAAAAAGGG. About 21,000 compounds screened, about 200 hits.
T3: TPP riboswitch RNA three-way junction, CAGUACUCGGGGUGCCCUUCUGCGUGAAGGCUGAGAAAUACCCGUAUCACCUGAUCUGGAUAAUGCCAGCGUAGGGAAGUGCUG. About 24,000 compounds screened, about 160 hits.

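Compounds were printed on reactive glass slides in duplicate spots, a dye-labelled oligonucleotide was laid over them, and the fluorescence left after washing was read. The data file lists only calls. An earlier report of the laboratory on the PreQ1, TPP and SAM-II riboswitches (doi:10.1038/s41467-019-09493-3) used 1 µM RNA for 2 h and required a mean Z-score above 3 (spot signal-to-noise against the whole library), a score well above that on a control array, and duplicate spots agreeing (coefficient of variation under 100); it then also set aside compounds that hit other targets, which this list keeps. The cut-offs behind this list may differ. The calls come from the array alone, and fixing a compound to the slide can hide its binding.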 A compound is marked active if it was called a hit and inactive if it was screened but was not. The compounds are a random part of those screened. A target missing from an entry has no call listed here. A dash means that no call is listed here.

For C[C@]12Cc3cn[nH]c3C[C@@H]1CC[C@@H]1[C@H]2CC[C@@]2(C)[C@H]1CC[C@]2(C)O the calls were T1: inactive; T2: inactive; T3: inactive. With CN(C)C(CNc1nccc(N2CCC(O)CC2)n1)c1ccccn1 (stereo not shown) the screen gave T1: inactive; T2: inactive; T3: inactive. With O=C(O)c1ccc(Nc2cnc3ccccc3n2)cc1 the screen gave T1: inactive; T2: inactive; T3: inactive. With Cc1nc(O)nc(C)c1CCC(=O)N1CCCCC(N)C1 (stereo not shown) the screen gave T1: inactive; T2: inactive; T3: inactive.

For C=CCNc1oc(-c2ccccc2)nc1S(=O)(=O)c1ccc(Cl)cc1 the calls were T1: inactive; T3: inactive. Calls for CCN(CC)CCNc1c(C)cc(CO)c(Cl)c1C.O=S(=O)(O)NC1CCCCC1 are T1: inactive; T2: inactive; T3: inactive. For COc1ccccc1NCc1nc2ccccc2n1Cc1ccccc1F the calls were T1: inactive; T2: inactive; T3: inactive. With CCN(CC)C(=O)[C@@H]1C[C@H](N)CN1C(=O)c1nc2ccccc2[nH]c1=O the screen gave T1: inactive; T2: inactive; T3: inactive.

With CCn1c(N)nc2cc(C(=O)N(C)Cc3noc(-c4ccccc4)n3)cnc21 the screen gave T1: inactive; T2: inactive; T3: inactive. With Cc1c[nH]c(C(=O)N2CC[C@@H]3[C@@H](CCC(=O)N3CC3CCNCC3)C2)n1 the screen gave T1: inactive; T2: inactive; T3: inactive. For Cc1ccc(-c2csc3ncnc(NCc4ccccc4)c23)cc1 the calls were T1: inactive; T3: inactive. Calls for CCCn1ncc(C(=O)NCc2c(C)ncc3c2CCNC3)c1C are T1: inactive; T2: inactive; T3: inactive.

For FC(F)(F)c1cc(-c2ccco2)nc(NCCc2ccccc2)n1 the calls were T1: inactive; T2: inactive; T3: inactive. CCOC(=O)c1cc(NCc2ccc(C)s2)ccc1N1CCOCC1 was scored T1: inactive; T2: inactive; T3: inactive. Calls for CC(=O)N[C@@H]1Cc2ccccc2[C@H]1NC(=O)c1cn(CCN)nn1 are T1: inactive; T2: inactive; T3: inactive. Calls for COc1ccc(C2C(C#N)=C(N)Oc3[nH]nc(C)c32)c(OC)c1OC (stereo not shown) are T1: inactive; T2: inactive; T3: inactive.

For COc1ccc(S(=O)(=O)NCCO)c2cccnc12 the calls were T1: inactive; T2: inactive; T3: inactive. CN(C)c1ccc(CNCCC2CCOC(C)(C)C2)cc1.Cl (stereo not shown) was scored T1: inactive; T2: inactive; T3: inactive. CN1CCN(C(=O)Cc2cscn2)CC12CCNCC2 was scored T1: inactive; T2: inactive; T3: inactive. With O=C1CC(NCC2CCCO2)C(=O)N1c1ccccc1 (stereo not shown) the screen gave T1: inactive; T2: inactive; T3: inactive.

For OCCN1CCN(CC#CCC(c2ccccc2)c2ccccc2)CC1 the calls were T1: inactive; T2: inactive; T3: inactive. CCc1c(C)nn(CC(=O)N[C@H]2CC[C@H]2NC2Cc3ccccc3C2)c1C was scored T1: inactive; T2: inactive; T3: inactive. For Cc1nn2c(N)c(-c3ccccc3)cnc2c1-c1ccc(Cl)cc1 the calls were T1: inactive; T2: inactive; T3: inactive. For NC(=O)c1ncn2c(=O)n(CCCl)nnc12 the calls were T1: inactive; T2: inactive; T3: inactive.

With Cc1cccc(C)c1NC(=O)Cn1c(-c2nonc2N)nc2ccccc21 the screen gave T1: inactive; T2: inactive; T3: inactive. With OC(COc1cccc(-c2nnco2)c1)CN1CCN(c2cccc(Cl)c2)CC1 (stereo not shown) the screen gave T1: inactive; T2: inactive; T3: inactive. Calls for CCOc1ccc(-c2c(C3CC3)n[nH]c2N)cc1OCC are T1: inactive; T2: inactive; T3: inactive. C=CCN1C(=O)C2(C(C#N)=C(N)N(c3cccc(C(F)(F)F)c3)C3=C2C(=O)OC3)c2ccccc21 (stereo not shown) was scored T1: inactive; T2: inactive; T3: inactive.

With C[C@@H](O)[C@H]1C(=O)N2C(C(=O)O)=C(SCCN=CN)[C@H](C)[C@H]12 the screen gave T1: inactive; T2: inactive; T3: inactive. For CC(=O)Nc1ccc(CNC(=O)CN[C@H](C(N)=O)[C@@H](C)O)cc1 the calls were T1: inactive; T2: inactive; T3: inactive. Calls for CCCc1[nH]nc2c1C(c1ccc(Cl)c(Cl)c1)C(C#N)=C(N)O2 (stereo not shown) are T1: inactive; T2: inactive; T3: inactive.

For reference, 3 entries once more:

structure,T1,T2,T3
COc1ccc(C2C(C#N)=C(N)Oc3[nH]nc(C)c32)c(OC)c1OC (stereo not shown),inactive,inactive,inactive
C=CCNc1oc(-c2ccccc2)nc1S(=O)(=O)c1ccc(Cl)cc1,inactive,-,inactive
Cc1nn2c(N)c(-c3ccccc3)cnc2c1-c1ccc(Cl)cc1,inactive,inactive,inactive

Calls as published in the ROBIN set (doi:10.1002/anie.202211358).